According to US20180194822A1, “DISRUPTION OF THE INTERACTION BETWEEN AMYLOID BETA PEPTIDE AND DIETARY LIPIDS” (THE TRUSTEES OF COLUMBIA UNIVERSITY IN THE CITY OF NEW YORK, priority 2015, published 2018):
Structures were worked out from names or drawings and are uncertain.

The chains behind the UniProt entries cited, without tags or fusion partners. Residues count along the entry.
UniProt P05067, 672-713 limits assumed: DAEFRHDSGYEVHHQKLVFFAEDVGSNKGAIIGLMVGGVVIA

What was measured:
[1] = biological target: Aβ42 peptide fluorescently tagged with FAM (Homo sapiens, UniProt P05067); test: Lipid binding assay: Aβ42-FAM on lipid-coated maleic anhydride plates; conditions: for di18:0: concentrations 10,000 pmol/well and below
[2] = biological target: Aβ:ApoE:lipid binding complex (Homo sapiens, UniProt P05067); test: ApoE binding assay: fluorescent Aβ42 on ApoE-coated plates in presence of lipid; conditions: increasing lipid concentration, background without ApoE subtracted

## CC/C=C\C/C=C\C/C=C\C/C=C\C/C=C\C/C=C\CCC(=O)O[C@H](COC(=O)CCCCCCCCCCCCCCCCC)COP(=O)(O)OCCN
[1]
  binding of Aβ42-FAM to plate-bound lipid: saturable one-site binding
[2]
  Aβ-Hilyte binding to ApoE in presence of lipid: bound ApoE
